Measurements: article PMC5432859

Target: feline A3Z2Z3 tagged with HA (domestic cat (Felis catus))
Experiment: co-IP; HEK293T cotransfected with His-tagged FIV Vif (4 ug) and feline A3Z2Z3-HA (2 ug); MG132 10 uM from 24 h after transfection; lysis buffer 150 mM NaCl, 1% Triton X-100 in PBS; lysates mixed with anti-HA magnetic beads, 4°C, 3 h; washed with RIPA buffer and PBS; Western blotting

B1: His-tagged Vif of FIV subtype A (strain Petaluma) (protein, UniProt P16089 1-251)
chain: MSEEDWQVSRRLFAVLQGGVNSAMLYISRLPPDEREKYKKDFKKRLFDTETGFIKRLRKAEGIKWSFHTRDYYIGYVREMVAGSTTSLSLRMYIYISNPLWHSQYRPGLKNFNKEWPFVNMWIKTGFMWDDIEKQNICIGGEVSPGWGPGMVGIAIKAFSCGERKIEATPVMIIRGEIDPKKWCGDCWNLMCLRNSPPKTLQRLAMLACGVPAKKWRGCCNQRFVSPYRTPADLEVIQSKPSWNLLWSGEL
Question: B1 was tested. Which binding did it give?
Answer: Its binding is “binds”.

Results are given in words; binding and its absence hold for the method and conditions named. Binding seen in cells or lysates may run through a third protein. Binding calls can cover weak binding; strength is not graded here. Where a sequence is shown, tags or fusion partners need not be part of it.
